Percent effect of library compounds

Chains of the proteins cited; added tags and fusions are not shown. Residues count along the entry.
UniProt Q4DA54, 1-478: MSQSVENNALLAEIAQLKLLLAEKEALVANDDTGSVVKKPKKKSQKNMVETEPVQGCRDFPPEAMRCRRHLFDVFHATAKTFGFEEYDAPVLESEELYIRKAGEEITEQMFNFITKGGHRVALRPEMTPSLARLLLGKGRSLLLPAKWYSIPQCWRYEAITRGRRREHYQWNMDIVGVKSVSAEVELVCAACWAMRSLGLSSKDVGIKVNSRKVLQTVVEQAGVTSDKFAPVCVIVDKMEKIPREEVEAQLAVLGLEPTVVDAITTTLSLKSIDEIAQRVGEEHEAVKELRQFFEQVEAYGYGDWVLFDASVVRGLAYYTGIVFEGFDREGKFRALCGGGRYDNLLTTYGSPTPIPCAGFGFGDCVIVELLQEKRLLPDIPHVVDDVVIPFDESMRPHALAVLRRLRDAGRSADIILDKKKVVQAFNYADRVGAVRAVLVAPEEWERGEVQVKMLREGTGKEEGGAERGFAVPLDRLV
UniProt I6X8D2, whole entry: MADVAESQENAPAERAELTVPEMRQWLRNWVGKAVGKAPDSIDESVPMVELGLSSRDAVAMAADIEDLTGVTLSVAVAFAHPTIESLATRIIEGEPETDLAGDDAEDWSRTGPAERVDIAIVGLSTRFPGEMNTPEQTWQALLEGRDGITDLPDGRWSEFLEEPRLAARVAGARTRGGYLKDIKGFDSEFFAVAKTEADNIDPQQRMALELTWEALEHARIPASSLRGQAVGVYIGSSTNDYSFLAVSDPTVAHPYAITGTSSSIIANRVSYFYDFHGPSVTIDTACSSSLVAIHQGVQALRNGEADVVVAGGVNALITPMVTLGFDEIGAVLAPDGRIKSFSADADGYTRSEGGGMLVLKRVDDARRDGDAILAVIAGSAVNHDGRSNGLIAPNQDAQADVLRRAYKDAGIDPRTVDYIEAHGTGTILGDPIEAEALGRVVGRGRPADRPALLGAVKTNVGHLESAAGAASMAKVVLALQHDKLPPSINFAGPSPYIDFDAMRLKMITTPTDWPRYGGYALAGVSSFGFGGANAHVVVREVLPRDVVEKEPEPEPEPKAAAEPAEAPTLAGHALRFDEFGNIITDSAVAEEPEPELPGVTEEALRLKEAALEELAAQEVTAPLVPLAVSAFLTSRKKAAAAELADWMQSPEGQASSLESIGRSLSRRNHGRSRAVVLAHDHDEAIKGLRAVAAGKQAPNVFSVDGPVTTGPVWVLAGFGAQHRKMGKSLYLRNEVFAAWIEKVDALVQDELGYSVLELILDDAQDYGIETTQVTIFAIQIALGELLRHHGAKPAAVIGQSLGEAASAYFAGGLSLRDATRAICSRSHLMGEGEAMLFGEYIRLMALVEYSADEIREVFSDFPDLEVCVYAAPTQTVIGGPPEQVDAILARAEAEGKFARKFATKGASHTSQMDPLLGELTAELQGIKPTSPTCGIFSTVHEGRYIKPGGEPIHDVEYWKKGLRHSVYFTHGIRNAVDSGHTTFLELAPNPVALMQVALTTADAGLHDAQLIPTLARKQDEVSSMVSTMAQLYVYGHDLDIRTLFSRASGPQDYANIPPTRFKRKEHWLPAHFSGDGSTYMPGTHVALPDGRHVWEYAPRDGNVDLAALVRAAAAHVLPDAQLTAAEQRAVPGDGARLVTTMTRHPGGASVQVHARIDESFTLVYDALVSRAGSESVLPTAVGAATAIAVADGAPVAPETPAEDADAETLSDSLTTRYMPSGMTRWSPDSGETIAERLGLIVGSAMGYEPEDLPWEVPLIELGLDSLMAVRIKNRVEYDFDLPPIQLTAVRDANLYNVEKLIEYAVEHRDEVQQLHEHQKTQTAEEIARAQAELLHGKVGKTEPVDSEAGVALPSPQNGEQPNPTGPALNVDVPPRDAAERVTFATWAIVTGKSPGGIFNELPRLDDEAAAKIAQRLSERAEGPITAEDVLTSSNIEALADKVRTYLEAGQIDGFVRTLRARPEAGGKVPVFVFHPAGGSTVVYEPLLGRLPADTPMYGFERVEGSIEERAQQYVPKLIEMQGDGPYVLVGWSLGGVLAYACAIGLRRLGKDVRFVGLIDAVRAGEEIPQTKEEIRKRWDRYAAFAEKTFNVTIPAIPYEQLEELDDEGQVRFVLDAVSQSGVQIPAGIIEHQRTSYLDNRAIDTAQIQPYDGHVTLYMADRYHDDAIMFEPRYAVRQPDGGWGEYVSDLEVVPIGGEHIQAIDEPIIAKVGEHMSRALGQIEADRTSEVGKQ
UniProt P9WNZ1, whole entry: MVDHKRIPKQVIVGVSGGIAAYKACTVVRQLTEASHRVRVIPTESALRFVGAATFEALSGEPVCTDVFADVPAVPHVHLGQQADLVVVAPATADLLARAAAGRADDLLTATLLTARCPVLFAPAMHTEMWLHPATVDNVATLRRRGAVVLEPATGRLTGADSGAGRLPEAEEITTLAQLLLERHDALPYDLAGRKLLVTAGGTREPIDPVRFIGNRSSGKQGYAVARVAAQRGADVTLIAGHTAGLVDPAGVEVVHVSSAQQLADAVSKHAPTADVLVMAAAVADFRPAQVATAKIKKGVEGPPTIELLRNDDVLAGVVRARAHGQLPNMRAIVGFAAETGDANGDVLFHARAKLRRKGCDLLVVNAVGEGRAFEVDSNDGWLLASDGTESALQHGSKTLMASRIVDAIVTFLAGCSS
UniProt Q8IDJ8, 1-583: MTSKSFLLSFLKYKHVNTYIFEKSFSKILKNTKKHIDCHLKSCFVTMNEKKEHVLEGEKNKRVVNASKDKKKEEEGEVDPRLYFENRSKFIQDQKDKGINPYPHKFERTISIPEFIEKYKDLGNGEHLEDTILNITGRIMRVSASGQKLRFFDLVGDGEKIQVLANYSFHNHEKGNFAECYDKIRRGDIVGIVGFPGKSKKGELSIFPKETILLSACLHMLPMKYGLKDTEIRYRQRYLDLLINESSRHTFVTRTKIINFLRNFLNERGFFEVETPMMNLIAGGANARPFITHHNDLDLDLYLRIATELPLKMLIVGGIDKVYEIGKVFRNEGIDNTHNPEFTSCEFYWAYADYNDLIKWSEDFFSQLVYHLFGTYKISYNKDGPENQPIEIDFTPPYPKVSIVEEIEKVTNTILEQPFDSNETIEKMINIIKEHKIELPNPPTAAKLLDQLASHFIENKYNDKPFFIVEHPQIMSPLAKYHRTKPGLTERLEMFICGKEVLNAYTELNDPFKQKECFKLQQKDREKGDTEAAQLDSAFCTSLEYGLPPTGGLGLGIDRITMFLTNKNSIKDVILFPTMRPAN
UniProt P9WFT3, whole entry: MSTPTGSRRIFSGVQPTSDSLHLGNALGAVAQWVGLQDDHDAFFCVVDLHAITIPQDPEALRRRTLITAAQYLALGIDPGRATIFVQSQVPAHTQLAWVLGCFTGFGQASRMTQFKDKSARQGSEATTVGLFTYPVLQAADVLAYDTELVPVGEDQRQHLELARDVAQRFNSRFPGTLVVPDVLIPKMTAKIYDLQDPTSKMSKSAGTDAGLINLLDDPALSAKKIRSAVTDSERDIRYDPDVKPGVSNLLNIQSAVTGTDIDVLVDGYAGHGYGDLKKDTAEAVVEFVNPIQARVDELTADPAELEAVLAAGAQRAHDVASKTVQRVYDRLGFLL

Measurements from “University of Dundee, Small-Polar-MMV Screening Library” (2021), ChEMBL document CHEMBL3988442.

A: 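Histidine-tRNA ligase, Trypanosoma cruzi CL Brener (UniProt Q4DA54). Enzyme assay of histidyl-tRNA synthetase; the read-out is not stated. Concentration: 30 µM. Direction is inferred from retests: higher values go with stronger inhibition. Size under these conditions: about 69,000 compounds, about 31 of them at 50% or above in at least one test.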
B: 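Polyketide synthase Pks13, Mycobacterium tuberculosis (UniProt I6X8D2). Enzyme assay of the thioesterase domain of polyketide synthase 13; the read-out is not stated. Concentration: 30 µM. The record gives no direction; the compounds picked for IC50 retests had high values, so higher reads as stronger inhibition. About 67,000 compounds were tested under these conditions; 0.46% (about 300) showed 50% or more at least once.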
C: 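Enzyme assay of CoaBC with a phosphate dye (Biomol Green) read at 650 nm. Target: Coenzyme A biosynthesis protein CoaBC, Mycobacterium tuberculosis (UniProt P9WNZ1). Tested at 30 µM. Higher reads as stronger inhibition, judged from the few compounds that gave an IC50. Most strong results did not repeat in a second test. Size under these conditions: about 67,000 compounds, about 40 of them at 50% or above in at least one test.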
D: 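Cell assay of Leishmania donovani living inside macrophages; the read-out is not stated. Tested at 30 µM. Higher reads as stronger inhibition (inferred: compounds with an IC50 in retests scored well above the rest). Size under these conditions: about 69,000 compounds, about 1,000 of them at 50% or above in at least one test.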
E: 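Lysine-tRNA ligase, Plasmodium falciparum 3D7 (UniProt Q8IDJ8). Enzyme assay of the cytosolic lysyl-tRNA synthetase in 384-well plates, read by luminescence. Tested at 30 µM. Higher reads as stronger inhibition, judged from the few compounds that gave an IC50. About 69,000 compounds were tested under these conditions; 0.071% (about 49) showed 50% or more at least once.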
F: 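Enzyme assay of tryptophanyl-tRNA synthetase; the read-out is not stated. Target: Tryptophan-tRNA ligase, Mycobacterium tuberculosis (UniProt P9WFT3). Compounds at 10 µM. Higher most likely means stronger inhibition; the record gives no direction and few retests gave an IC50. About 65,000 compounds were tested under these conditions; 0.098% (about 64) showed 50% or more at least once.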

Values are the deposited “Percent Effect”, in %. The record does not define 0% and 100%; most values in the screen are far below 50% and negative numbers occur (in some assays of this library far below -100). This is an unselected part of the compounds tested. Two or more numbers in one place are separate tests of the same structure; such repeats can differ widely.

{"compound": "CN(C)C(C)(C)CNCc1cn(C)nc1-c1cccnc1", "A": -2.105, "B": -13.57, "C": 8.367, "E": -4.418, "F": 11.75}
{"compound": "CSCc1cccc(S(=O)(=O)NCCO)c1", "A": 2.632, "B": -4.843, "C": -7.463, "D": 7.47, "E": 9.268, "F": 1.864}
{"compound": "CNS(=O)(=O)CCCN1CCCC1c1noc(C2CC2)n1", "stereo": "configuration not stated", "A": 4.511, "B": -15, "C": 4.884, "D": -0.5164, "E": 7.525, "F": 1.495}
{"compound": "[H][C@@]12CN(Cc3c(C)noc3C)C[C@]1([H])CN(C(=O)c1cscn1)C2", "D": "1.854 & -36.25"}
{"compound": "COc1ccc(-n2c(CO)nc3ccccc32)cc1CO", "A": 3.061, "B": -41.37, "C": 11.45, "D": 17.64, "E": 6.08, "F": 2.015}
{"compound": "CC(C)Cc1noc(CN2CCCN(C(=O)c3cccc(Cl)c3)CC2)n1", "A": 0.9804, "B": -4.924, "C": 6.341, "D": -10.28, "E": -3.661, "F": -0.7524}
{"compound": "Cl.O=C(Nc1ccc(F)cc1)C(c1ccccc1)N1CCOCC1", "stereo": "configuration not stated", "D": 30.69}
{"compound": "CCn1ccc(-c2nnc(SCC(=O)NCC(C)C)n2CC)n1", "A": 5.155, "B": -3.449, "C": 0.2237, "D": 8.904, "E": 0.2058, "F": 0.08157}
{"compound": "Fc1ccc(CN2CCOC(Cn3cncn3)C2)c2ncccc12", "stereo": "configuration not stated", "A": 5.357, "B": -11.38, "C": -0.609, "D": -6.483, "E": 3.343, "F": 2.434}
{"compound": "CN(Cc1cccc(-n2cccn2)c1)C(=O)c1ccnc(N)c1", "A": -27.19, "B": 2.573, "C": -2.343, "D": -2.35, "E": -1.712, "F": -6.006}
{"compound": "Oc1nnc(-c2cccs2)c2sc(N3CCCCC3)nc12", "A": 7.317, "B": -0.4043, "C": -1.631, "D": -2.035, "E": 2.482, "F": -3.549}
{"compound": "O=C(CSc1ccccc1F)NS(=O)(=O)c1ccc2c(c1)OCCO2", "A": 4.734, "B": -7.679, "C": 5.196, "D": 18.46, "E": 0.1895, "F": -4.457}
{"compound": "CCSc1cc(C(=O)N(CC(F)F)C(C)C)ccn1", "A": 1.19, "B": 9.214, "C": 0.1229, "D": 27.62, "E": 2.031, "F": 0.5747}
{"compound": "CCS(=O)(=O)CCSc1ccc(Br)cc1", "A": 5.051, "B": 6.209, "C": 5.387, "D": 2.44, "E": -2.722, "F": 3.355}
{"compound": "Cc1ccc(CN2CC[C@H]3OCC[C@@H](C(=O)N4CCCCO4)[C@@H]3C2)o1", "A": -7.317, "B": 16.94, "C": 8.02, "E": -4.298, "F": 4.564}
{"compound": "Nc1ncc(CN2CCC(CCC(=O)NC3CC3)CC2)cn1", "A": 6.122, "B": -16.2, "C": 9.719, "D": 8.618, "E": 4.641, "F": -1.511}
{"compound": "[H][C@@]12CCCC[C@]1(O)CCN(C(C)=O)[C@H]2c1ccccc1", "D": 22.14}
{"compound": "COc1ccnc(N(C)Cc2c(C)noc2C)n1", "A": 5.419, "C": -0.9677, "D": 10.85, "E": 3.312, "F": -0.2742}
{"compound": "COc1ccccc1CNC(=O)C(C)n1cc2c(n1)c(C)nn2C", "stereo": "configuration not stated", "A": 6.957, "B": -6.195, "C": 1.617, "D": 52.43, "E": 2.171, "F": 1.554}
{"compound": "CC(C)NC(=O)Nc1ccc(CNCc2ccc(OC(F)F)cc2)cc1", "A": 8.832, "B": -9.691, "C": -6.434, "D": 3.048, "E": 0.4288, "F": 1.647}

2 of the entries, repeated:

{"compound": "CN(C)C(C)(C)CNCc1cn(C)nc1-c1cccnc1", "A": -2.105, "B": -13.57, "C": 8.367, "E": -4.418, "F": 11.75}
{"compound": "Cl.O=C(Nc1ccc(F)cc1)C(c1ccccc1)N1CCOCC1", "stereo": "configuration not stated", "D": 30.69}